# No constants are given. Whether binding was seen depends on the method and setting. Binding seen in cells or lysates may run through a third protein. Some entries that bind do so weakly or less than the wild type.
# The chains behind the UniProt entries cited, without tags or fusion partners.
# UniProt O43524: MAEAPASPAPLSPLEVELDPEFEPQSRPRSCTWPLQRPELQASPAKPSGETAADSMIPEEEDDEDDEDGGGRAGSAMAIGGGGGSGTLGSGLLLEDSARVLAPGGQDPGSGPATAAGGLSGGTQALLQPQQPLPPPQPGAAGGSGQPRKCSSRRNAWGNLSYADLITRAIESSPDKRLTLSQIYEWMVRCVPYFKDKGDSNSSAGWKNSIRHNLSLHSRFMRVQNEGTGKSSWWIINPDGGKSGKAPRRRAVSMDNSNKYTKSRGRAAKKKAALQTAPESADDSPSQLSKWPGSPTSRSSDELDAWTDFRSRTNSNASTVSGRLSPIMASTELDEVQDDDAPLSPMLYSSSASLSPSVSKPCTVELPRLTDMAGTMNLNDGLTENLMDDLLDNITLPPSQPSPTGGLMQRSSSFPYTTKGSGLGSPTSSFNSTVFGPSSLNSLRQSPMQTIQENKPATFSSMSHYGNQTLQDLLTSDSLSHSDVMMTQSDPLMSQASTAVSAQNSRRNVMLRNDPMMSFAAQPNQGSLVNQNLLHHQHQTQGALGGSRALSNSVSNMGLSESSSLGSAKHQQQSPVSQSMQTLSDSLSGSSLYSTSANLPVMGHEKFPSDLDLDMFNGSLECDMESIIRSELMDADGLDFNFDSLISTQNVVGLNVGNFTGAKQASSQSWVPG
# UniProt Q04206: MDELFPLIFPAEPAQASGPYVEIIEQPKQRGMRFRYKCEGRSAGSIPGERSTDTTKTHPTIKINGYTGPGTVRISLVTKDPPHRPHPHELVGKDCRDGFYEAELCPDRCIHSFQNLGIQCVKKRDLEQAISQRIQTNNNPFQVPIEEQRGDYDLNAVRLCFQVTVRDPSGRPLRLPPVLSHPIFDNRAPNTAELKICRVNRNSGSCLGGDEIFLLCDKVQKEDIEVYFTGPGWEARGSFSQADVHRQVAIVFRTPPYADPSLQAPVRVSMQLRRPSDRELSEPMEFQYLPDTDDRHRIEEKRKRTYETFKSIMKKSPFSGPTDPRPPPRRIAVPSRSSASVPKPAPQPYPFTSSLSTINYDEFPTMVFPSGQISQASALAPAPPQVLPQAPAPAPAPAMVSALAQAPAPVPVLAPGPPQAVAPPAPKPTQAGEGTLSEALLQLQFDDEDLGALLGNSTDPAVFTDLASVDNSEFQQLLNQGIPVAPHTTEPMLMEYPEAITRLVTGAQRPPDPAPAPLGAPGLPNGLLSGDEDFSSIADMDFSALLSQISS
# Biological target: forkhead box class O3 (FoxO3) (human (endogenous in 16HBE)) (UniProt O43524)
# Experiment: co-IP; anti-FoxO3 added to 200 μg of nuclear extracts of 16HBE cells, overnight at 4°C, protein A/G agarose beads 2 hrs at 4°C; blotted against p65/NF-κB and FoxO3; cells cultured with/without 20% CSE for 24 hrs
substance,measurement,value
NF-κB subunit p65 (from UniProt Q04206 1-551),binding,binds

# Reference: article PMC5867095
